{
  "source": "patent US20220193042A1",
  "about": "“NITAZOXANIDE AND THIAZOLIDES FOR USE IN THE TREATMENT OF DISEASES ASSOCIATED WITH OXIDATIVE STRESS” (GENFIT, priority 2019, published 2022)",
  "assay_type_in_all_cases": "in vivo, C57Bl/6J mice",
  "key": {"[1]": {"test_system": "CDAA/c diet induced NASH model", "assay": "4-HNE immunohistochemistry in liver, chronic CDAA+1% cholesterol model of fibrosing NASH", "settings": "NTZ 100 mg/kg/day in CDAA/c diet for 12 weeks, vs CDAA/c group"}, "GSTA1": {"test_system": "GSTA1", "assay": "Hepatic GSTA1 mRNA by RNAseq, CDAA/c NASH model", "settings": "NTZ 100 mg/kg/day + CDAA/c for 12 weeks vs CDAA/c regimen alone"}, "GSTA2": {"test_system": "GSTA2", "assay": "Hepatic GSTA2 mRNA by RNAseq, CDAA/c NASH model", "settings": "NTZ 100 mg/kg/day + CDAA/c for 12 weeks vs CDAA/c regimen alone"}, "GSTA4": {"test_system": "GSTA4", "assay": "Hepatic GSTA4 mRNA by RNAseq, CDAA/c NASH model", "settings": "NTZ 100 mg/kg/day + CDAA/c for 12 weeks vs CDAA/c group"}},
  "note": "At least one compound was matched to its structure with a doubt left.",
  "data": [
    {"compound": "CC(=O)Oc1ccccc1C(=O)Nc1ncc([N+](=O)[O-])s1", "note": "[NTZ, [2-[(5-nitro-1,3-thiazol-2-yl)carbamoyl]phenyl]ethanoate]", "values": [
      {"measurement": "intrahepatic 4-HNE levels (4-HNE-positive area/total selected fields area)", "setting": "[1]", "value": "significantly lower"},
      {"measurement": "levels of hepatic GSTA1 transcripts", "setting": "GSTA1", "value": "significant induction"},
      {"measurement": "levels of hepatic GSTA2 transcripts", "setting": "GSTA2", "value": "significant induction"},
      {"measurement": "levels of hepatic GSTA4 mRNA", "setting": "GSTA4", "value": "significant higher level"}
    ]}
  ]
}
